# For at least one compound, name, drawing or mass did not settle the structure.
# Columns and labels:
# CD14 = CD14 expression in human adipocytes; format: cell-based; settings: nifedipine 10 μmol/L plus calcitriol
# [1] = system: macrophage inhibitory factor (MIF); assay: MIF expression in human adipocytes; format: cell-based; settings: nifedipine 10 μmol/L plus calcitriol
# From the text: Cell culture: Human preadipocytes used in this study were supplied by Zen-Bio (Research Triangle, N.C.). Preadipocytes were inoculated in DMEM/Ham's F-10 medium (DMEM-F10) (1:1, vol/vol) containing 10% FBS, 15 mmol/L HEPES, and antibiotics at a density of 30,000 cells/cm2. Confluent monolayers of preadipocytes were induced to differentiate with a standard differentiation medium consisting of DMEM-F10 (1:1, vol/vol) medium supplemented with 15 mmol/L HEPES, 3% FBS, 33 μmol/L biotin, 17 μmol/L pantothenate, 100 nmol/L insulin, […] methylisobutylxanthine, 1 μmol/L dexamethasone, 1 μmol/L BRL49653, and antibiotics. […]
# Cells were washed with fresh adipocyte medium, re-fed with medium containing the indicated treatments, and incubated at 37° C. in 5% CO2 for 48 hours before analysis. Cell viability was measured via trypan blue exclusion.
# Adipocyte and muscle 18s, CD14, TNFα, MIP, M-CSF, IL-6 and MCP-1 were quantitatively measured using a Smart Cycler Real Time PCR System (Cepheid, Sunnyvale, Calif.) with a TaqMan 1000 Core Reagent Kit (Applied Biosystems, Branchburg, N.J.). […] Reactions of quantitative RT-PCR for standards and unknown samples were also performed according to the instructions of Smart Cycler System (Cepheid, Sunnyvale, Calif.) and TaqMan Real Time PCR Core Kit (Applied Biosystems, Branchburg, N.J.). […]
# NADPH oxidase = NADPH oxidase expression in cultured adipocytes; format: cell-based, mouse; settings: glucose 30 mmol/L alone or plus compound, 48 hours
# Experimental: 3T3-L1 preadipocytes were incubated at a density of 8000 cells/cm^2 (10 cm^2 dish) and grown in Dulbecco's modified Eagle's medium (DMEM) containing 10% FBS and antibiotics (adipocyte medium) at 37° C. in 5% CO2 in air. Confluent preadipocytes were induced to differentiate with a standard differentiation medium consisting of DMEM-F10 (1:1, vol/vol) medium supplemented with 1% FBS, 1 μM dexamethasone, IBMX (0.5 mM) and antibiotics (1% Penicillin-Streptomycin). Preadipocytes were maintained in this differentiation medium for 3 days and subsequently cultured in adipocyte medium. Cultures were re-fed every 2-3 days to allow 90% of cells to reach full differentiation before conducting chemical treatment. Chemicals were freshly diluted in adipocyte medium before treatment. […] Cell viability was measured via trypan blue exclusion. Adipocyte 18s, cyclin A, NADPH oxidase, and UCP2 were quantitatively measured using a Smart Cycler Real Time PCR System (Cepheid, Sunnyvale, Calif.) with a TaqMan 1000 Core Reagent Kit (Applied Biosystems, Branchburg, N.J.). […] Reactions of quantitative RT-PCR for standards and unknown samples were also performed according to the instructions of Smart Cycler System (Cepheid, Sunnyvale, Calif.) and TaqMan Real Time PCR Core Kit (Applied Biosystems, Branchburg, N.J.). The mRNA quantitation for each sample was further normalized using the corresponding 18s quantitation.
# IL-6 = IL-6 expression in 3T3-L1 adipocytes; format: cell-based, mouse; settings: nifedipine 10 μmol/L plus 1α, 25-(OH)2-D3, 48 h; p=0.016
# Experimental: 3T3-L1 pre-adipocytes were incubated at a density of 8000 cells/cm^2 (10 cm^2 dish) and grown in Dulbecco's modified Eagle's medium (DMEM) containing 10% FBS and antibiotics (adipocyte medium) at 37° C. in 5% CO2 in air. Confluent pre-adipocytes were induced to differentiate with a standard differentiation medium consisting of DMEM-F10 (1:1, vol/vol) medium supplemented with 1% fetal bovine serum (FBS), 1 μM dexamethasone, isobutylmethylxanthine (IBMX) (0.5 mM) and antibiotics (1% Penicillin-Streptomycin). Pre-adipocytes were maintained in this differentiation medium for 3 days and subsequently cultured in adipocyte medium. […]
# Cells were incubated in serum free medium overnight before chemical treatment. […] Cell viability was measured via trypan blue exclusion.
# Adipocyte and muscle 18s, TNFα, IL-6, IL-8, IL-15 and adiponectin were quantitatively measured using a smart cycler real-time PCR system (Cepheid, Sunnyvale, Calif.) with a TaqMan 1000 Core Reagent Kit (Applied Biosystems, Branchburg, N.J.). […] Reactions of quantitative RT-PCR for standards and unknown samples were also performed according to the instructions of Smart Cycler System (Cepheid, Sunnyvale, Calif.) and TaqMan Real Time PCR Core Kit (Applied Biosystems, Branchburg, N.J.). The mRNA quantitation for each sample was further normalized using the corresponding 18s quantitation. […]
smiles,measurement,setting,value
COC(=O)C1=C(C)NC(C)=C(C(=O)OC)C1c1ccccc1[N+](=O)[O-] [nifedipine],effect on calcitriol increased CD14 expression,CD14,completely reversed
same,effect on calcitriol increased MIF expression,[1],completely reversed
same,effect on NADPH oxidase expression,NADPH oxidase,suppressed
same,"effect on 1α, 25-(OH)2-D3 increased IL-6 expression",IL-6,reversed

# From patent publication US20110038948A1, “Methods of Reducing the Production of Reactive Oxygen Species and Methods of Screening or Identifying Compounds and Compositions that Reduce the Production of Reactive Oxygen Species” (UNIVERSITY OF TENNESSEE RESEARCH FOUNDATION, priority 2005, published 2011)
